# Some of the results follow.
# Sequences of proteins named here, by UniProt entry; tags and fusion partners are left off.
# UniProt Q0JBA9, entry or part of it: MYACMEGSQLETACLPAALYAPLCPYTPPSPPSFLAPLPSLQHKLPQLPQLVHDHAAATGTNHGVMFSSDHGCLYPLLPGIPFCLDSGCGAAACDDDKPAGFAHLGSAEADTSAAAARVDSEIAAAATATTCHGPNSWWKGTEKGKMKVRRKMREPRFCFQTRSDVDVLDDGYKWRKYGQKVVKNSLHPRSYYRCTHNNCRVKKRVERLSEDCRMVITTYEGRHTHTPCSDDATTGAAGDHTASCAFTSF
# Molecular target: OsWRKY34 (Oryza sativa, UniProt Q0JBA9 1-250)
# Assay: protein-binding microarray (RPBM); PBS, 2% BSA, 51.3 ng/ul salmon testes DNA, 50 uM zinc acetate, 200 nM TF, 25 C, 1 h; high values mean tight binding
# Conditions: protein: recombinant; tags: N-terminal polyhistidine and DsRed monomer fusion (pET32a); label: CyDye5-dUTP incorporated in the synthesized complementary strand; 3' TTTTT single-stranded linker to array surface; dsDNA, one strand shown
# In short: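 Transcription factors, each fused N-terminally to a polyhistidine tag and DsRed, were expressed in E. coli BL21-CodonPlus and purified on Ni–NTA. A custom Agilent array was made double-stranded by primer extension with Cy5-dUTP and blocked with 2% BSA. It was incubated with 200 nM protein in PBS, 2% BSA, salmon testes DNA and 50 µM zinc acetate at 25 °C for 1 h, then washed. The binding signal is per-feature fluorescence intensity (arbitrary units) read on an Axon 4000B scanner.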
row,Sequence,binding signal
1,GACACCCGCTGCTCTTCTCTCTCTTCCTTTATCTCTTTAACGGAGTCACCTAGTGCAG,10300 fluorescence intensity (a.u.)
2,CTTTTCCCCGCGGCCATCCCCGTCGCCCCACCGCCGCCGCCGGAGTCACCTAGTGCAG,11200 fluorescence intensity (a.u.)
3,AAGATCGTATTACCCTTCGCCTTCGCCTCGTCGGCCATTACGGAGTCACCTAGTGCAG,9560 fluorescence intensity (a.u.)
4,AAGCTAGTCAAACCGTTGACTACCACTGTCTTTGTTGCGCCGGAGTCACCTAGTGCAG,16800 fluorescence intensity (a.u.)
5,TTGCCACACTTGTGATTAACTATTTCTTGGCCATACTTTTCGGAGTCACCTAGTGCAG,10100 fluorescence intensity (a.u.)
6,TTTTTGGTTACTTGTCACAATTGTTTCTTAGCTTCATGGCCGGAGTCACCTAGTGCAG,11100 fluorescence intensity (a.u.)
7,ATATCCAATCCTGCATATCATCATCGTCTTTGCGGGAAATCGGAGTCACCTAGTGCAG,8830 fluorescence intensity (a.u.)
8,TCACCGATTCACTCTCCTAGTCCTAGAGTCCTGGTCCATCCGGAGTCACCTAGTGCAG,8440 fluorescence intensity (a.u.)
9,TTCTCGATCGTTTCTTTCCCGCAATATTCCTCATCCTTGTCGGAGTCACCTAGTGCAG,11900 fluorescence intensity (a.u.)
10,TCTTCATGCGACCATTACTCGCCCGTTGTCCGATAGCGCGCGGAGTCACCTAGTGCAG,8590 fluorescence intensity (a.u.)
11,CTCCTCGCCACCGTTCTCCGTCCATCCACCGAGTCACCGACGGAGTCACCTAGTGCAG,11200 fluorescence intensity (a.u.)
12,AGCTAAGTGCCATATTGCACGTACTCGTTGTCTGTCCGATCGGAGTCACCTAGTGCAG,8520 fluorescence intensity (a.u.)
13,TTCCGCTCCCACCACAGTGTGCTGCTCTCGTCAGTTGCCACGGAGTCACCTAGTGCAG,10300 fluorescence intensity (a.u.)
14,ACCCCAAGTGTTCACCTCTCTTCTGCTTCATCTCGATCTCCGGAGTCACCTAGTGCAG,11000 fluorescence intensity (a.u.)
15,TGGCCCGGTACCCGCACCTCGCCGGGAGGTTCGACGTCGACGGAGTCACCTAGTGCAG,9640 fluorescence intensity (a.u.)
16,GGCGATCCGGCTTAACTACTTTGTTTGTTTCTCTGTGCAACGGAGTCACCTAGTGCAG,8480 fluorescence intensity (a.u.)
17,CTTAAATTTTCTTTAGATCTTTTGCTTTATCTTGTTATAACGGAGTCACCTAGTGCAG,8630 fluorescence intensity (a.u.)
18,CTAAAAGTCAATCCACGCCACCATCGATCTCTCTATCCAACGGAGTCACCTAGTGCAG,9440 fluorescence intensity (a.u.)
19,GACGTGCGCAGTGACGCAGCATCCCTCGTCTCCGCTATTTCGGAGTCACCTAGTGCAG,8160 fluorescence intensity (a.u.)
20,GGGATCCTGACGATTTTCGCCGCCATCAGTACGTCCGGATCGGAGTCACCTAGTGCAG,8940 fluorescence intensity (a.u.)
21,ACCGCCCCGCACCCACCCACCTCTGCCTAGATCCGTCTCCCGGAGTCACCTAGTGCAG,8730 fluorescence intensity (a.u.)

row,Sequence,binding signal
1,GCATTCGTCTCGCTGCCCACCTACTTTTCAAACGCGGATGCGGAGTCACCTAGTGCAG,11700 fluorescence intensity (a.u.)
2,CTCGGCCATCGATTTCCTCACCCTCTGCCATCGCCTTAAGCGGAGTCACCTAGTGCAG,11300 fluorescence intensity (a.u.)
3,CGCCGCTGCCGTTGACCGTGTTCCGGCACTTCTTCACGACCGGAGTCACCTAGTGCAG,17400 fluorescence intensity (a.u.)
4,ATTCACCATTTTACCGTTATACCTGGCCACTGTTATATATCGGAGTCACCTAGTGCAG,11800 fluorescence intensity (a.u.)
5,ATGCACTAGCCAAGTTGTTGTACCTATATACTCATTTTTCCGGAGTCACCTAGTGCAG,11400 fluorescence intensity (a.u.)
6,CGCACTCTACCTAGACCACCACCACCACCAGTCCACCACACGGAGTCACCTAGTGCAG,11500 fluorescence intensity (a.u.)
7,TCAGTTTCTCTTTTTTCTTGTTCGAGTCAATCGGGCGGATCGGAGTCACCTAGTGCAG,8960 fluorescence intensity (a.u.)
8,TCCTCGTCTACATTGCGGTCTCCGGCGGCGGCGGCGGGGTCGGAGTCACCTAGTGCAG,10800 fluorescence intensity (a.u.)
9,GGGAAAGTGGTTGGCGGATATTCTTGTTTTCTTTTTTTGTCGGAGTCACCTAGTGCAG,12500 fluorescence intensity (a.u.)
10,GCGCGCGCTTGTAGCCATCGGAGGAGGAGGAGGGAGGGGACGGAGTCACCTAGTGCAG,8230 fluorescence intensity (a.u.)
11,TTTGATTCTCTACCTTTTGTTTTCTGTTTATATTTCAATTCGGAGTCACCTAGTGCAG,12400 fluorescence intensity (a.u.)
12,CCTTGGTTTCCGTGTCATGTTTGACCATTCGTCTTATTTGCGGAGTCACCTAGTGCAG,12400 fluorescence intensity (a.u.)
13,TCTTATATTATACATCTCACTGTCTCAGTGTCTTGCCCTTCGGAGTCACCTAGTGCAG,8370 fluorescence intensity (a.u.)
14,GTGGTTGTGTGCAAGCTGCCAGCGCTTTTTGTTTTCCCTCCGGAGTCACCTAGTGCAG,9430 fluorescence intensity (a.u.)
15,AATTTGTCTGCTTCCAGAGTTCCAGTTGCCTTGCCGCATGCGGAGTCACCTAGTGCAG,11500 fluorescence intensity (a.u.)
16,GACTCCCGTCTCCTCGCCCGGCCGGCGGCCGCCCGTCGCCCGGAGTCACCTAGTGCAG,9560 fluorescence intensity (a.u.)
17,GCTTACGTTATAGGTATTTTTCCACGGTATGAGACTAAAACGGAGTCACCTAGTGCAG,9520 fluorescence intensity (a.u.)
18,ATAAGATGTTTTGATTGTTATAAGTTTGACCAAGTTTATACGGAGTCACCTAGTGCAG,8780 fluorescence intensity (a.u.)
19,TGCGTCTCTGTCTCTCTCCTGGCGTTGGCTTGGCTCTAACCGGAGTCACCTAGTGCAG,9360 fluorescence intensity (a.u.)
20,AAGATGATTTCCGTCCGTTTCCCGTTTTCACCCCTAGTTGCGGAGTCACCTAGTGCAG,9520 fluorescence intensity (a.u.)
21,CCGCCTCGCCAACCTCCCCACGCCGGCCACCGCCGCACGGCGGAGTCACCTAGTGCAG,8640 fluorescence intensity (a.u.)

row,Sequence,binding signal
1,AATTAATTGTGTATTATAAGGTTTGGTCCCATTTTCTTTTCGGAGTCACCTAGTGCAG,8110 fluorescence intensity (a.u.)
2,AGTTTAAAACCCACCCGTCCCGTGCCCGTGTCCGTGTCTCCGGAGTCACCTAGTGCAG,12700 fluorescence intensity (a.u.)
3,GTCTCGCTCAGCCAGCCGCTACGCCCTGCCCGTCGCCTGCCGGAGTCACCTAGTGCAG,10100 fluorescence intensity (a.u.)
4,TTTCGCCATACCTGTTACCATGTTAACATATCTTACCTTCCGGAGTCACCTAGTGCAG,11800 fluorescence intensity (a.u.)
5,GGCAGTGACGCAAGAAAGGGGTCGGGGACGGGTCAACAAGCGGAGTCACCTAGTGCAG,10800 fluorescence intensity (a.u.)
6,AACTGGCTATGCGGCTTTCCTTCGCCCTTACCCTGTCTCTCGGAGTCACCTAGTGCAG,8900 fluorescence intensity (a.u.)
7,TCATTACCCATCACCAACTGCTACTTCATTTTACACTTGCCGGAGTCACCTAGTGCAG,12700 fluorescence intensity (a.u.)
8,GCTTGCACTGTTTGACCATTCGTCTTATTTAAAAAATTTGCGGAGTCACCTAGTGCAG,10900 fluorescence intensity (a.u.)
9,TTTGAGACTATTTGAAGCCAGCAGCATCACTCCATGTTCTCGGAGTCACCTAGTGCAG,10100 fluorescence intensity (a.u.)
10,TGACAACCAATCACGTCCTTGCGACCTTGCCTCTGCTTCACGGAGTCACCTAGTGCAG,9290 fluorescence intensity (a.u.)
11,GTTTGACTATTTTATGCCTTGTAGCTTGAGCTACAGTTCACGGAGTCACCTAGTGCAG,10100 fluorescence intensity (a.u.)
12,AAATTTGGTCGAACCTAAATAAGTTTGACTAAAACAGTTACGGAGTCACCTAGTGCAG,8610 fluorescence intensity (a.u.)
13,CTATACCGGTTAACTAGCCAGCGCCATTTTCTACTTCTTACGGAGTCACCTAGTGCAG,9540 fluorescence intensity (a.u.)
14,GGTGGCTGCATATCTCTTTCATCTCTTCTCTCCTCCACCTCGGAGTCACCTAGTGCAG,8980 fluorescence intensity (a.u.)
15,TCCTGCTTATCGGATCCCACCAGACCCAATTTGAATTTTCCGGAGTCACCTAGTGCAG,11000 fluorescence intensity (a.u.)
16,ATGGACTCGTTTATTCCAAATTTTAGTTAGTTTTAAATTTCGGAGTCACCTAGTGCAG,9720 fluorescence intensity (a.u.)
17,AGTGGGATGCACCTCTTCGTTTTTTTTTTTAAATTCCGATCGGAGTCACCTAGTGCAG,10500 fluorescence intensity (a.u.)
18,CATTGATACGGCCGGTTTATGCTCTGCCTTTTTCTTTATTCGGAGTCACCTAGTGCAG,9650 fluorescence intensity (a.u.)
19,CCTGCCAACCCCATCCCAGCCCTACACGTGTCCATCCTCACGGAGTCACCTAGTGCAG,10700 fluorescence intensity (a.u.)
20,TTCTGTCATCACTGTGCTTCCCCAGCCGGATTTGTTTTTGCGGAGTCACCTAGTGCAG,9020 fluorescence intensity (a.u.)
21,ATTTGTACATTGTGCACATATATATTCTTCCTTCACCTATCGGAGTCACCTAGTGCAG,10500 fluorescence intensity (a.u.)

row,Sequence,binding signal
1,TTTTCTGGTTAAGGGGTATGAATTAGATTCCGCATAGTTTCGGAGTCACCTAGTGCAG,8420 fluorescence intensity (a.u.)
2,AGCATTATACGAGCTTGGTATCCCCATGGTTTGAAATTTTCGGAGTCACCTAGTGCAG,9780 fluorescence intensity (a.u.)
3,TGGTTTTGTTTGATCCTCCGGACTATTAAATAGTCTTTCACGGAGTCACCTAGTGCAG,8450 fluorescence intensity (a.u.)
4,ATCCCAAATCACCCGTCACCGGCGGCCACGACCGCACCCGCGGAGTCACCTAGTGCAG,9280 fluorescence intensity (a.u.)
5,AGTTCTTCAAGCTTTGCATATATATAAACACACATTCTGACGGAGTCACCTAGTGCAG,9240 fluorescence intensity (a.u.)
6,CCTCCTAGTTCCCTCGGCATGCAGACGATCTGCCAGTTTACGGAGTCACCTAGTGCAG,11700 fluorescence intensity (a.u.)
7,AATTTACTACTACTTTGAATCGTTATTGCAAAAACGCCACCGGAGTCACCTAGTGCAG,8660 fluorescence intensity (a.u.)
8,TTCATCGCCGACAGCCACCTCCGTCTGCCAGCTCACCCCGCGGAGTCACCTAGTGCAG,8410 fluorescence intensity (a.u.)
9,ACCTACCTATACTTCTTATCCAATCACAACCTTATTTTTACGGAGTCACCTAGTGCAG,10600 fluorescence intensity (a.u.)
10,TCCTTTCCACCCTCTCATCAGTTTGCCCACACAGCCGCCGCGGAGTCACCTAGTGCAG,8170 fluorescence intensity (a.u.)
11,CTCCTTTAATTACCATGTATCTCTGTTTTGTACCTCTATCCGGAGTCACCTAGTGCAG,12300 fluorescence intensity (a.u.)
12,GCCCGGCTTTCCCGCGGCGCGCTCTTCTCCTTCCTATAAACGGAGTCACCTAGTGCAG,8960 fluorescence intensity (a.u.)
13,TTCACATATATGTGTGCTGTGATTTTTTTTCTTCCTTACCCGGAGTCACCTAGTGCAG,8400 fluorescence intensity (a.u.)
14,TTCTTCCCCACCGCCGCGGCTGTCCTCCTCACGGGCTTCTCGGAGTCACCTAGTGCAG,8140 fluorescence intensity (a.u.)
15,TTTTCCAAACTTCCAACTTTCTATCACATCAAACCTTTCACGGAGTCACCTAGTGCAG,8100 fluorescence intensity (a.u.)
16,AGAAATTTACGCGACTTTTTTTTTTGTCTTTGATAAATATCGGAGTCACCTAGTGCAG,8500 fluorescence intensity (a.u.)
17,AAGGTAATCGACAACTAGCGCAAGTCCTTTTCATTTTCTTCGGAGTCACCTAGTGCAG,9100 fluorescence intensity (a.u.)
18,GTTGTTTTGACTTTGGTAAAAGTCAAACTATTTAAATTTGCGGAGTCACCTAGTGCAG,14100 fluorescence intensity (a.u.)
19,GCCGACCGCTGTCGTCGACCCTACCCTACCCTCATACGATCGGAGTCACCTAGTGCAG,8890 fluorescence intensity (a.u.)
20,CTCCTACAAGCCGCCGCTCCGACCTCGCCGTCGCCGGTCGCGGAGTCACCTAGTGCAG,8160 fluorescence intensity (a.u.)
21,CTACGACCACCACCACCACCACCACCCTCCGGCCGGCGAGCGGAGTCACCTAGTGCAG,10800 fluorescence intensity (a.u.)

# A run of entries taken from the entries so far:
row,Sequence,binding signal
5,AGTTCTTCAAGCTTTGCATATATATAAACACACATTCTGACGGAGTCACCTAGTGCAG,9240 fluorescence intensity (a.u.)
6,CCTCCTAGTTCCCTCGGCATGCAGACGATCTGCCAGTTTACGGAGTCACCTAGTGCAG,11700 fluorescence intensity (a.u.)
7,AATTTACTACTACTTTGAATCGTTATTGCAAAAACGCCACCGGAGTCACCTAGTGCAG,8660 fluorescence intensity (a.u.)
8,TTCATCGCCGACAGCCACCTCCGTCTGCCAGCTCACCCCGCGGAGTCACCTAGTGCAG,8410 fluorescence intensity (a.u.)

# Reference: PMC7819943, “Rice protein-binding microarrays: a tool to detect cis-acting elements near promoter regions in rice”
